# Results are given in words; binding and its absence hold for the method and conditions named. Some results given as binding are weak or reduced against the parent protein; the word gives no strength.
# Sequences of proteins named here, by UniProt entry; tags and fusion partners are left off. A change or cut given only in a name is not applied to a line headed by its entry.
# UniProt Q9VDJ9: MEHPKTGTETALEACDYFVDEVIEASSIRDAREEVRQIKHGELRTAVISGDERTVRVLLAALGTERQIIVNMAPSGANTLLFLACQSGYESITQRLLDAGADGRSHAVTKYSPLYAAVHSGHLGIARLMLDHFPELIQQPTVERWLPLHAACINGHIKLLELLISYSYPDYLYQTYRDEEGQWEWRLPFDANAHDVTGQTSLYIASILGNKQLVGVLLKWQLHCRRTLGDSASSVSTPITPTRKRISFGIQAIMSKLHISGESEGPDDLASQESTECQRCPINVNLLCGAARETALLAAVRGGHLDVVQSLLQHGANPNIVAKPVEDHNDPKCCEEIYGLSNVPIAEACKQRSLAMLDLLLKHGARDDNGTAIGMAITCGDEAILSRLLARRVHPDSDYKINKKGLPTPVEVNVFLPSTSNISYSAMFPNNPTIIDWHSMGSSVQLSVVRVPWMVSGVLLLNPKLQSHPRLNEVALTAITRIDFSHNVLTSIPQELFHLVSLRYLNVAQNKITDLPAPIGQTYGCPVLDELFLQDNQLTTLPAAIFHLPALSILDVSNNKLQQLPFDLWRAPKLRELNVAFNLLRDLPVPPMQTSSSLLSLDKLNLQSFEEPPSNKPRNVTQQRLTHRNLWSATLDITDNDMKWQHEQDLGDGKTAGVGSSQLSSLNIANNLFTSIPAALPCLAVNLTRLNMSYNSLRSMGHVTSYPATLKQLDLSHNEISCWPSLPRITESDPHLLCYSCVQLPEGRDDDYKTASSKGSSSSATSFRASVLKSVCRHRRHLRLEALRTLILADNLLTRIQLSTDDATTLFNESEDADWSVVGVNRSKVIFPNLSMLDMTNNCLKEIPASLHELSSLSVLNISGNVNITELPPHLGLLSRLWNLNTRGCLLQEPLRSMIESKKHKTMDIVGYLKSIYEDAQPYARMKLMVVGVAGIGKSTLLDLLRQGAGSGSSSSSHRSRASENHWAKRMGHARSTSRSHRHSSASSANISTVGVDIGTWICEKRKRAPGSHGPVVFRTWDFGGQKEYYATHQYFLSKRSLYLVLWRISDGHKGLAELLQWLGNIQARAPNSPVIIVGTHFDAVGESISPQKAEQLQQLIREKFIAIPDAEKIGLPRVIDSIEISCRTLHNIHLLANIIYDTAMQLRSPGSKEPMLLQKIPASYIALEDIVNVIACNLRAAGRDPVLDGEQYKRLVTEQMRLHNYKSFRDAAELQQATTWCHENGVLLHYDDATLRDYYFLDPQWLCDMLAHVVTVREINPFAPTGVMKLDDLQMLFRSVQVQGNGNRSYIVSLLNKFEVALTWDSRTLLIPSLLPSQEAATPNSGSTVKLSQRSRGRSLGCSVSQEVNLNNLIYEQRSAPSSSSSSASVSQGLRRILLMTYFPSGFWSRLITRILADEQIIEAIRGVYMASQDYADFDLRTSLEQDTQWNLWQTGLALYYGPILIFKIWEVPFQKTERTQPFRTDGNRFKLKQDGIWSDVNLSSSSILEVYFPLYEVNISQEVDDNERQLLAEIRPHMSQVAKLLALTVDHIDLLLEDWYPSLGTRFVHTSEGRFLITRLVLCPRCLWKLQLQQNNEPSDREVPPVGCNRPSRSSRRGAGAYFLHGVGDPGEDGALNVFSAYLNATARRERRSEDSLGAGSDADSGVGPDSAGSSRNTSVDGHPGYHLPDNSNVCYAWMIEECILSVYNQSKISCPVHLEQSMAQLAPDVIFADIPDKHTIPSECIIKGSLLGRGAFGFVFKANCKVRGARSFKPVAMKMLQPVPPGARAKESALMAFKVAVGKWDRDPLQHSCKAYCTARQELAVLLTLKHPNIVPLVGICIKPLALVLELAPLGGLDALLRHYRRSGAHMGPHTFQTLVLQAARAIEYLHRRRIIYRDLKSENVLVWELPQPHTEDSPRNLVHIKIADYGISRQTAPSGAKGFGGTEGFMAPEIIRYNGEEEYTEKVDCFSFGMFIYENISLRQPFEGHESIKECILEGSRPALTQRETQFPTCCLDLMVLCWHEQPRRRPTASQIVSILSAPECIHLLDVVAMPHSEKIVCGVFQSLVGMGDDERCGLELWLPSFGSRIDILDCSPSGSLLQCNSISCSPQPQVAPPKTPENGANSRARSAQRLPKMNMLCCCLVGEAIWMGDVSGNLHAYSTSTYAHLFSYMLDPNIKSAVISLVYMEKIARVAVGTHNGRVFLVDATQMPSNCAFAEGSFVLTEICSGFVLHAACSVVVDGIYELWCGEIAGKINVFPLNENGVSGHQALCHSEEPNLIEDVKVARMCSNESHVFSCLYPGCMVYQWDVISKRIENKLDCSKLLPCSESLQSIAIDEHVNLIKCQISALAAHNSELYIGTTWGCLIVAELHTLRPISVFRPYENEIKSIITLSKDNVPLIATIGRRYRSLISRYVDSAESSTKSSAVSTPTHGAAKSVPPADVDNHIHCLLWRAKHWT
# Biological target: endogenous Drosophila Lrrk protein tagged with HA (Lrrk^HA knockin) (Drosophila) (UniProt Q9VDJ9)
# Experiment: native gel or EMSA; native polyacrylamide gel of fly heads (10-day-old flies with one copy of HA-tagged Lrrk, with or without a Lrrk transgene), western blotting for HA; multimer to monomer ratio
row,Substance,binding
1,Drosophila Lrrk-G1914S (UAS-Lrrk^G1914S transgene) (from UniProt Q9VDJ9 1-2445) (enzyme),binds
2,Drosophila Lrrk-I1915T (UAS-Lrrk^I1915T transgene) (from UniProt Q9VDJ9 1-2445) (enzyme),binds
3,Drosophila Lrrk-R1069C (UAS-Lrrk^R1069C transgene) (from UniProt Q9VDJ9 1-2445) (enzyme),binds
4,wild type Drosophila Lrrk (UAS-Lrrk^wt transgene) (from UniProt Q9VDJ9 1-2445) (enzyme),binds

# Other lines, results leading:
row,binding,Substance
1,binds,Drosophila Lrrk-Y1383C (UAS-Lrrk^Y1383C transgene) (from UniProt Q9VDJ9 1-2445) (enzyme)
2,binds,endogenous Drosophila Lrrk protein tagged with HA (Lrrk^HA knockin) (from UniProt Q9VDJ9 1-2445) (enzyme)
